Assay results published in publication doi:10.1101/2022.07.29.502014.
No constants are given. Whether binding was seen depends on the method and setting. In cells and extracts the contact can be indirect. Some results given as binding are weak or reduced against the parent protein; the word gives no strength. Tags and fused reporters may be left off the sequences shown.

Amino acid sequences for entries named in this document (tags omitted).
UniProt Q9N2I1: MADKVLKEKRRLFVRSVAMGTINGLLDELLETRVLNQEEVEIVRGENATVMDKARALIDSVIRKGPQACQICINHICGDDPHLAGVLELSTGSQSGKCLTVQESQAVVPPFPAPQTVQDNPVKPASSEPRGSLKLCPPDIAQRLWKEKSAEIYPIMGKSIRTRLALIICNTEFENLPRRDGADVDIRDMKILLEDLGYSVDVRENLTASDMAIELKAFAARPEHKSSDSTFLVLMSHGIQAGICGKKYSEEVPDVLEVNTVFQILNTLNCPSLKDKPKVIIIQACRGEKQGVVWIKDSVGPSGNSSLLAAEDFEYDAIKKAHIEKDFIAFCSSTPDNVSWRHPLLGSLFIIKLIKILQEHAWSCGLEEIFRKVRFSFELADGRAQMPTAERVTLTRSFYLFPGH

Biological target: FLAG-caspase-1 (porcine) (porcine) (UniProt Q9N2I1)
Assay: co-IP

B1: S-MYC-RIG-I (porcine derived) (protein, UniProt Q9GLV6 1-940)
chain: MTAEQRRNLHAFGDYVRKTLDPTFILSYMAPWFRDDEVQHIQAEKNNKGPTEAASLFLQFLLELQEEGWFRGFLDALNQAGYCGLCEAIESWDFQKIEKLEEYRSLLRRLQPEFKTTINPKDILPEIAECLISQECEEILQICSSKGLMAGAEKMVECLLRSDKENWPKTLKLALEKEESRFSELWMVDKGAEDVKMKDLEDDEMKTCDVQIFYKEEPENQNLSQNSCSSSAPHTYSPLKPRKYQLELALPAQNGKNTIICAPTGCGKTFVSLLICEHHLKKFPRGRKGKVVFFAIQLPVYEQQKSVFSKHFERLGYKVAGISGATSDTVCVEQIVENSDIIILTPQILVNCLTNGTIPSLSVFTLMIFDECHNTSKQHPYNVIMFSYLDRKLGGSSDSLPQVIGLTASVGVGDAKNKAEATEYICKLCASLDTSVIATVRDNLEELEEVVYKPQKFFRKVELRTTDRFKCIISQLMMEIESLAKSIFEELGTITLGGLFQIQNSNFGTQKYEQWIVKVQKECAVFQMPDKDKESRICKALFSYMSHLRIYNDALIINEHARMKDALDYLKDFFRNIRAAGFDEIEQDLTQRFEEKLQELESISIDPSNENPKLRDLCFILQEEYHLNPETRTILFVKTRALVDALKKWIKENPKLSFLKPSILTGRGKTNQNIGMTLPAQKCVLDTFRTDKDNKILITTSVADEGIDIAQCNLVILYEYVGNVIKMIQTRGRGRARGSKCFLLTANADLIDKEKMNMYKEEMMNGAILILQTWDEAVFKEKIHQIQIREKIIRDNQGKPEPVPDKKTKKLLCKKCKAFACYTADIRMVEKCHFTVVGDAFRERFVSKLHPKPKSFGNIEKRAKIYCARPDCSHDWGIYVRYKAFEMPFIKIESFVVEDIATGVQTVHAKWKDFNFEKLSFDAAEMAGGAQDLGLQGMGN
With B1 the binding was “binds”.
